PubChem BioAssay AID1671195, Yale University, 2021
The deposit covers about 22,000 reagents; shown is a random part of them. About 1,510 of all reagents (6.9%) count as active. 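Active includes knockdowns raising or lowering LDL uptake; positive z-scores mean more uptake, negative mean less.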 Unmarked entries are inactive. Reagents against one gene are numbered here.

Assay: 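Regulators of LDL receptor activity judged by labelled LDL uptake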 (primary screen)
System: human Huh7 hepatoma cells
Reagent: siRNA pool against human genes, 18 nM
Duration: about 2 to 2.5 days of knockdown, then 8 h LDL uptake
Challenge: DiI-labelled LDL at 30 µg/ml for 8 h, in lipoprotein-deficient serum medium
Read-out: 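Fluorescent LDL signal imaged in cells, scaled to the plate median, robust z-score for each replicate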
Scale: robust z-score: higher = more LDL uptake after knockdown
Active means: 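a gene counts as active if at least two replicate z-scores exceed ±2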

| target gene | reagent | robust z-score, replicate 1 | robust z-score, replicate 2 | robust z-score, replicate 3 |
| --- | --- | --- | --- | --- |
| SHPRH | 1 | -0.791 | -0.56 | -0.407 |
| FARS2 | 1 | -0.718 | -0.661 | -0.859 |
| KCNK16 | 1 | 2.23 (active) | 0.2 | 2.07 |
| LYSMD4 | 1 | -0.207 | -0.748 | -0.693 |
| REXO1L1P | 1 | -0.489 | -0.898 | -0.542 |
| EFNA1 | 1 | -0.58 | 0.22 | 0.198 |
| LOC400164 (retired record) | 1 | 1.63 | 1.85 | 1.24 |
| LOC147941 (retired record) | 1 | -0.802 | -0.0153 | -0.471 |
| BTN3A1 | 1 | 0.462 | 0.186 | 0.176 |
| PSKH2 | 1 | -1.02 | -0.805 | -1.33 |
| VCAM1 | 1 | -1.92 | -1.76 | -1.46 |
| DYNLL2 | 1 | -1.64 | -1.68 | -1.56 |
| CETN2 | 1 | 0.0285 | -0.786 | -0.766 |
| AP2S1 | 1 | -1.44 | -1.06 | -1.64 |
| LOC441706 (retired record) | 1 | -0.93 | -0.991 | -0.697 |
| INTS3 | 1 | 0.158 | 0.306 | -0.0307 |
| PDCD2L | 1 | -0.703 | -0.0639 | 0.147 |
| SAPCD2 | 1 | 0.205 | 0.00448 | -0.119 |
| NFATC3 | 1 | 0.833 | 0.0509 | 0.454 |
| DNAH6 | 1 | 1.46 | 1.35 | 1.3 |
| DNAH6 | 2 | -0.072 | 0.0912 | -0.0327 |
| NXPE4 | 1 | 0.992 | 0.0469 | 1.37 |
| H2BC7 | 1 | 0.125 | 0.527 | 0.621 |
| KRABD2 | 1 | 1.45 | 0.378 | 0.388 |
| LOC149704 (retired record) | 1 | -0.0522 | -0.733 | -0.644 |
| BAG2 | 1 | 0.0762 | -0.461 | -0.236 |
| EEFSEC | 1 | -2.13 | -1.67 | -1.82 |
| DOK6 | 1 | -0.252 | -0.076 | 0.0353 |
| OTOF | 1 | -0.597 | -0.881 | 0.163 |
| LENEP | 1 | 1.28 | 0.0362 | 1.57 |
| CRYGN | 1 | -1.4 | -0.227 | -1.5 |
| LOC132706 (retired record) | 1 | -0.487 | -1.03 | -1.42 |
| LILRA4 | 1 | -1.35 | -1.65 | -1.61 |
| CTDSP2 | 1 | 1.21 | 0.439 | 1.23 |
| NLRP10 | 1 | -1.35 | -1.28 | -1.47 |
| HAUS7 | 1 | 0.269 | 0.424 | -0.0982 |
| LOC100506459 | 1 | -0.909 | -0.803 | -0.947 |
| LOC401506 (retired record) | 1 | 0.114 | 0.586 | 0.501 |
| THRB | 1 | 0.718 | 0.186 | -0.114 |
| DIS3L | 1 | -0.965 | 0.38 | -0.0457 |
| RAB24 | 1 | -0.61 | -0.536 | 0.227 |
| ATXN2 | 1 | -0.816 | 0.122 | 0.334 |
| PSMD10 | 1 | -1.4 | -1.47 | -1.77 |
| LOC389656 (retired record) | 1 | -0.133 | -0.245 | -0.288 |
| R3HDM4 | 1 | -1.51 | -1.7 | -0.778 |
| SLC35D1 | 1 | 0.351 | -0.312 | 0.454 |
| TMC5 | 1 | -0.111 | 0.0089 | 0.0916 |
| ITLN1 | 1 | 3.64 (active) | 3.47 | 3.47 |
| CABLES2 | 1 | 0.404 | 0.308 | -0.065 |
| FKBP1B | 1 | 0.165 | 0.519 | -0.0919 |
| NUP93 | 1 | 0.0491 | 0.779 | -1.71 |
| METTL18 | 1 | -0.414 | -1.69 | -1.14 |
| TMED6 | 1 | 0.419 | -0.619 | -0.775 |
| SIPA1L3 | 1 | -0.0938 | 0.476 | 0.427 |
| MRPS10 | 1 | -0.0227 | -1.36 | -1.42 |
| NEDD4L | 1 | 0.216 | 0.374 | 0.189 |
| LOC387883 (retired record) | 1 | -0.714 | -0.562 | -0.569 |
| RPS24 | 1 | -1.3 | -0.627 | -1.36 |
| MME | 1 | -0.325 | 0.78 | 0.553 |
| LINC00355 | 1 | -0.972 | -1.38 | -0.113 |
| P2RY10 | 1 | -2.57 | 0.231 | -0.0956 |
| LOC388180 (retired record) | 1 | -0.0997 | -0.288 | -0.59 |
| SND1 | 1 | 0.395 | 0.115 | -0.395 |
| NDUFB8 | 1 | 0.808 | 0.0698 | -0.138 |
| THA1P | 1 | 0.0344 | 0.552 | 0.459 |
| CRBN | 1 | 0.578 | 1.67 | 0.907 |
| FABP5P1 | 1 | -1.01 | -1.05 | -1.26 |
| EIF3F | 1 | 0.635 | 2.98 | 0.595 |

7 of these entries, set out differently.
target gene	reagent	robust z-score, replicate 1	robust z-score, replicate 2	robust z-score, replicate 3
LOC388180 (retired record)	1	-0.0997	-0.288	-0.59
SND1	1	0.395	0.115	-0.395
NDUFB8	1	0.808	0.0698	-0.138
THA1P	1	0.0344	0.552	0.459
CRBN	1	0.578	1.67	0.907
FABP5P1	1	-1.01	-1.05	-1.26
EIF3F	1	0.635	2.98	0.595
